Part of at least one peptide drawing is inferred or uncertain, most often the ends. Where a SMILES comes first, the peptide text is derived from it. [ ]: non-standard residue; d: D form.
System: spinal cord injured rats (hind-limb locomotion)
Test: Basso, Beattie, and Bresnahan (BBB) open-field locomotor score after clip compression spinal cord injury at T12
Assay type: in vivo
Conditions: rat SCI model, 200 μg/kg i.v.; motor function and mechanical allodynia

For `N[C@H](Cc1ccccc1)C(=O)N[C@H](CC(=O)O)C(=O)NCC(=O)O` [fdG, D-phenylalanine-D-aspartic acid-Glycine] (H-[dF]-[dD]-Gly-OH), the “improving chronic neurological outcomes” value was “not active”.
